# Laboratory results published in PubChem BioAssay AID504444 (National Center for Advancing Translational Sciences (NCATS), 2011).
# The campaign covered roughly 360,000 compounds. About 7,500 (2.1%) were called active. Inconclusive results, whose numbers are uncertain, are shown with a selection of clear calls. Calls come from the whole dose curve; as a rule, active = well fitted inhibition curve with a large enough effect; inconclusive = small, poorly fitted or top-dose-only effect, or effect the other way; inactive = flat fitted curve, though single readings scatter. Potencies of inconclusive entries are doubtful fits and often do not repeat.
# Test: Nrf2 qHTS screen for inhibitors; note: nearly all actives have a fitted effect of over 60% in size
# Settings: A549 ARE-Fluc reporter, luciferase luminescence, 18-24 h; activity change, negative = inhibition: at 46 µM (top of the series)
# Outline: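 Nrf2 function is reported as luminescence of an ARE-controlled luciferase in A549 cells. Compounds were tested at several concentrations, and a CellTiter-Fluor read on the same wells flagged cytotoxicity.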
# % is set by controls: 0 for no effect and ±100 for the full control effect; potency is the fitted concentration of half-maximal effect.
Compound,Potency,"activity change, negative = inhibition"
COc1ccc(S(=O)(=O)Nc2ccc(F)cc2)cc1N(C)S(=O)(=O)c1ccc(Cl)cc1,"inconclusive: 29.1 µM [falling, single point]",
CCOP(=O)(OCC)c1ccc2ccc3ccccc3c(=O)c2c1,,inactive: 5.27%
CCOC(=O)c1cccc(NC(=O)Nc2ccc3c(c2)N(C)C(=O)c2ccccc2S3)c1,active: 20.6 µM,
O=C(CCN1C(=O)/C(=C/c2ccc(Cl)cc2)SC1=S)NCCCn1ccnc1,"inconclusive: 29.1 µM [falling, single point]",
O=C(c1ccccc1)c1ccc(Cn2cc(CCCO)nn2)cc1,"inconclusive: 29.1 µM [falling, single point]",
CN(CC(=O)Nc1ccc(F)c(F)c1F)C(=O)c1ccc2c(c1)NC(=O)CS2,"inconclusive: 25.9 µM [falling, single point]",
CC(=O)c1ccc(Oc2ncnc3sccc23)cc1,"inconclusive: 10.3 µM [activator, partial curve]",
CC(=O)Oc1ccc2ccccc2c1C(NC(=O)Cc1ccccc1)c1ccccc1 (configuration not stated),"inconclusive: 18.4 µM [falling, single point]",
C=CCn1c(C)cc(C(=O)COC(=O)C2CC(=O)N(Cc3ccccc3)C2)c1C (configuration not stated),"inconclusive: 1.3 µM [falling, partial curve, poor fit]",
Cc1ccc(-c2noc(-c3nnn(CC(=O)Nc4cccc(C(F)(F)F)c4)c3N)n2)cc1,"inconclusive: 4.11 µM [activator, full curve]",
Cc1cc(C)n(-c2nc(-c3ccccc3)cs2)n1,"inconclusive: 18.4 µM [activator, partial curve]",
Cc1cc(C)cc(NC(=S)Nc2cccc3cnccc23)c1,,inactive: -2.6%
COc1ccc(-c2csc(NC(=O)CSc3n[nH]c(C)n3)n2)cc1,"inconclusive: 16.4 µM [activator, partial curve]",
CC1(c2ccc3noc(-c4ccc(F)cc4)c3c2)OCCO1,"inconclusive: 29.1 µM [falling, single point]",
CC(C)c1ccc(Nc2ncccc2C#N)cc1,"inconclusive: 10.3 µM [activator, partial curve]",
CC1(C)Cc2ccccc2C(N/N=C/c2ccc([N+](=O)[O-])cc2)=N1,,inactive: 7.52%
CC(=O)N1CCOc2cc(S(=O)(=O)Nc3cc(C(F)(F)F)ccc3Cl)c(C)cc21,"inconclusive: 25.9 µM [activator, single point]",
CCOC(=O)NC(=O)CSc1nc(C)cc(C(F)(F)F)c1C#N,,inactive: -10.3%
CCSc1ncc(Cl)c(C(=O)N(Cc2ccc(C(C)(C)C)cc2)C2CCS(=O)(=O)C2)n1 (configuration not stated),"inconclusive: 18.4 µM [falling, partial curve]",
CC(=O)Nc1sc(N/N=C\c2ccccc2)nc1-c1cccs1,"inconclusive: 9.2 µM [activator, partial curve]",
O=C(Nc1ccc(F)c(F)c1)C1CCN(S(=O)(=O)c2cccc3nonc23)CC1,"inconclusive: 23.1 µM [falling, single point]",

# By substructure: those above with an aryl thioether with sulfur outside any ring.
Compound,Potency,"activity change, negative = inhibition"
COc1ccc(-c2csc(NC(=O)CSc3n[nH]c(C)n3)n2)cc1,"inconclusive: 16.4 µM [activator, partial curve]",
CCOC(=O)NC(=O)CSc1nc(C)cc(C(F)(F)F)c1C#N,,inactive: -10.3%
CCSc1ncc(Cl)c(C(=O)N(Cc2ccc(C(C)(C)C)cc2)C2CCS(=O)(=O)C2)n1 (configuration not stated),"inconclusive: 18.4 µM [falling, partial curve]",

# The listing continues.

Compound,Potency,"activity change, negative = inhibition"
Cc1ccc(C)c(CSc2nnc(-c3cccs3)n2Cc2ccco2)c1,"inconclusive: 29.1 µM [falling, single point]",
COc1ccc(C2CC(C(F)(F)F)n3nc(C(=O)N(C)Cc4cn(C)nc4C)c(Cl)c3N2)cc1 (configuration not stated),"inconclusive: 14.6 µM [falling, single point]",
COc1ccc(N/C=C\C(=O)c2ccc(C)cc2)cc1OC,"inconclusive: 25.9 µM [activator, partial curve]",
Cc1nn(Cc2ccccc2Cl)c2sc(C(=O)NCc3ccc4c(c3)OCO4)cc12,"inconclusive: 16.4 µM [falling, single point]",
O=C(NCCC(=O)N1CCCC1)c1ccccc1Cl,"inconclusive: 3.26 µM [activator, partial curve]",
Cc1ccc(NC(=O)CSCC(=O)OC(C)C(=O)Nc2ccc(S(N)(=O)=O)cc2)c(C)c1 (configuration not stated),,inactive: 2.25%
OC[C@H]1O[C@@](CO)(O[C@H]2O[C@H](CO)[C@@H](O)[C@H](O)[C@H]2O)[C@@H](O[C@H]2O[C@H](CO)[C@@H](O)[C@H](O)[C@H]2O)[C@@H]1O,,inactive: -2.01%
O=C(Nc1cccc(-c2nc3ccccc3[nH]2)c1)c1c(F)cccc1F,"inconclusive: 29.1 µM [falling, single point]",
CCCC[C@@H](CNC)NC[C@H](Cc1ccc(O)cc1)NCCc1ccc(OCC)cc1,,inactive: 17.4%
COCCNC(=O)[C@@]1(C)C=C[C@@H](Cc2ccccc2)N1C(=O)c1ccccc1,"inconclusive: 16.4 µM [activator, single point]",
Cc1ccc(S(=O)(=O)Nc2ccc3nc(-c4cccn4C)[nH]c3c2)cc1,"inconclusive: 29.1 µM [falling, single point]",
COc1ccccc1C(=O)NCCC(=O)Nc1ccncc1,"inconclusive: 32.6 µM [falling, partial curve, poor fit]",
COc1ccc2c(c1)C1(Nc3ccccc3-c3nc4ccccc4n31)C(=O)N2 (configuration not stated),"inconclusive: 14.6 µM [falling, partial curve, poor fit]",
COc1cccc(-c2nc(CCl)cs2)c1OC,,inactive: 4.51%
Cc1ccc(Nc2nc(Nc3ccc(Cl)cc3)nc(N3CCOCC3)n2)cc1,,inactive: -16.3%
Cc1ccc(NC(=O)C2CCCN(S(=O)(=O)c3c(C)nn(C)c3C)C2)c(C)c1 (configuration not stated),,inactive: 8.16%
Cn1nnnc1SCc1nc2scc(-c3ccc(Cl)cc3)c2c(=O)[nH]1,"inconclusive: 23.1 µM [falling, single point]",
CC(C)(C)OC(=O)N1CCC(C(=O)Nc2cccc(C(=O)NCCCc3ccccc3)c2)CC1,active: 23.1 µM,
O=C(c1cccc(S(=O)(=O)Nc2ccc(Br)cc2)c1)N1CCCC1,"inconclusive: 18.4 µM [falling, partial curve, poor fit]",
CCOc1ccc(C2C(C(N)=O)=C(C)Nc3nc(-c4cccc(Cl)c4)nn32)cc1OC (configuration not stated),,inactive: -23.5%
C=CCn1c(=O)c(C(=O)NCc2ccccc2Cl)c(O)c2ccccc21,"inconclusive: 29.1 µM [falling, single point]",
